According to PMC7473771:
Results are given in words; binding and its absence hold for the method and conditions named. In cells and extracts the contact can be indirect. Some binding calls cover weakened binding; strength is not graded here.

By UniProt entry, the sequences of proteins in these tests, tags left out. Where a name states a change or a piece, a line headed by the entry shows the natural chain unless it says otherwise. Chains listed by the source or under a name are the forms on record and can include a tag or linker.
UniProt O15027: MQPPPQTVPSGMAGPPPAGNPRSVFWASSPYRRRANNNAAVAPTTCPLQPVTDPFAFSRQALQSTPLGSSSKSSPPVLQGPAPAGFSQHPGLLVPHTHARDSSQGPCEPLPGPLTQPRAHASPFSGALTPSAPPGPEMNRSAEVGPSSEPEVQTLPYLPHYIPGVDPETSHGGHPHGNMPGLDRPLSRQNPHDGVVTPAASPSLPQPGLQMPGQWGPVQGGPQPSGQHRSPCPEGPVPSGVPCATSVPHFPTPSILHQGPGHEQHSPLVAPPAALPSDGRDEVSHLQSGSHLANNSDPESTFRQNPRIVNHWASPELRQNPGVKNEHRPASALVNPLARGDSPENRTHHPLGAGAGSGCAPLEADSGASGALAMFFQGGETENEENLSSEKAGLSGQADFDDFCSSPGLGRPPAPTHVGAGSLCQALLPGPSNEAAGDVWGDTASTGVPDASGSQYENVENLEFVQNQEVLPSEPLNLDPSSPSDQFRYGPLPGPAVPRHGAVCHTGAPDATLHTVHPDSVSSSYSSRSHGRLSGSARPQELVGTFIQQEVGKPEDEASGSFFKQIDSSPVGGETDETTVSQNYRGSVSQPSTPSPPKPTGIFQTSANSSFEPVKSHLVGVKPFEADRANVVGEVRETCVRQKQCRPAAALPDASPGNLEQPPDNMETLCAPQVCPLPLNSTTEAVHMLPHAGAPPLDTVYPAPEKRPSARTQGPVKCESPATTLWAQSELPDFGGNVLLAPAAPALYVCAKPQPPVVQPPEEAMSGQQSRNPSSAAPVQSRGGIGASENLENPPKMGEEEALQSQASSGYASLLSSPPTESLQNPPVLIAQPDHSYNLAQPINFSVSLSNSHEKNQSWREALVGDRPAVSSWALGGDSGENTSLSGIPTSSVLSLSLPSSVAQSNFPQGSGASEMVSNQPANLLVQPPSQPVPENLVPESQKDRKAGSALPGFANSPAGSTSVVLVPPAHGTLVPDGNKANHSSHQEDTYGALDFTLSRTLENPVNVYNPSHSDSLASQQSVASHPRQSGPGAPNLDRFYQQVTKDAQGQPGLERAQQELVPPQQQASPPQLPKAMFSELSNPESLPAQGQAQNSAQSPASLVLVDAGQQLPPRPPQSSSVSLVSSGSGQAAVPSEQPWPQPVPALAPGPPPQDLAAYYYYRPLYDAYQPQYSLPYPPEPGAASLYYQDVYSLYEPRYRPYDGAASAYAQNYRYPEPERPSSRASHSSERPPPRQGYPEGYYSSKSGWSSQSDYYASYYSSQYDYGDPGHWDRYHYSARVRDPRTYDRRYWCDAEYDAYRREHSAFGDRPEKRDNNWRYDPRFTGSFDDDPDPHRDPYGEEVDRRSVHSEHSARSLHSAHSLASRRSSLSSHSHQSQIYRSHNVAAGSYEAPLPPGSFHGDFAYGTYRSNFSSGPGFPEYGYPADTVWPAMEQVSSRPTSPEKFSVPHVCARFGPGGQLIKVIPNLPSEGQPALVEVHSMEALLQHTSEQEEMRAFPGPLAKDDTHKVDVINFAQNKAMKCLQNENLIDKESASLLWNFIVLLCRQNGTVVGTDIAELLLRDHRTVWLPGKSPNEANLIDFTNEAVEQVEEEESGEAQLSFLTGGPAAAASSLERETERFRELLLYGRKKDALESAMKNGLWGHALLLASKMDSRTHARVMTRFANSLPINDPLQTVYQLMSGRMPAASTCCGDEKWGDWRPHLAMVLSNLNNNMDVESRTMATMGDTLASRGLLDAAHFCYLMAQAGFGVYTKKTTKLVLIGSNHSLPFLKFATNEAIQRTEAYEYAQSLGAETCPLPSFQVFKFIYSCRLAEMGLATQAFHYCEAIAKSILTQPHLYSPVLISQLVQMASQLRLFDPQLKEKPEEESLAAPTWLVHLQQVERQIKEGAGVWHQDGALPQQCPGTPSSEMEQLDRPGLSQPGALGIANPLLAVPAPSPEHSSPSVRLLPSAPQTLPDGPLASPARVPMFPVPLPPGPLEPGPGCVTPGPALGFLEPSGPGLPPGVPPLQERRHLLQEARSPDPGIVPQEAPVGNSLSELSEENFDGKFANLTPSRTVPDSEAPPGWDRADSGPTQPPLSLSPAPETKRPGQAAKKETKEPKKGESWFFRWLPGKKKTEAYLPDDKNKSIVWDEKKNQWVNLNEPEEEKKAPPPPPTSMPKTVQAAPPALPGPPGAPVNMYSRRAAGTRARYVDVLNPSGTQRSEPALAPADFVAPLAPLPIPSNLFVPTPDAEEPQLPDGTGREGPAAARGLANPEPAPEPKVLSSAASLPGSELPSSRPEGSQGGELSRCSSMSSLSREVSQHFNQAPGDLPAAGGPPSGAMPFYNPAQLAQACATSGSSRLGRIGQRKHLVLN
UniProt Q9NSY1: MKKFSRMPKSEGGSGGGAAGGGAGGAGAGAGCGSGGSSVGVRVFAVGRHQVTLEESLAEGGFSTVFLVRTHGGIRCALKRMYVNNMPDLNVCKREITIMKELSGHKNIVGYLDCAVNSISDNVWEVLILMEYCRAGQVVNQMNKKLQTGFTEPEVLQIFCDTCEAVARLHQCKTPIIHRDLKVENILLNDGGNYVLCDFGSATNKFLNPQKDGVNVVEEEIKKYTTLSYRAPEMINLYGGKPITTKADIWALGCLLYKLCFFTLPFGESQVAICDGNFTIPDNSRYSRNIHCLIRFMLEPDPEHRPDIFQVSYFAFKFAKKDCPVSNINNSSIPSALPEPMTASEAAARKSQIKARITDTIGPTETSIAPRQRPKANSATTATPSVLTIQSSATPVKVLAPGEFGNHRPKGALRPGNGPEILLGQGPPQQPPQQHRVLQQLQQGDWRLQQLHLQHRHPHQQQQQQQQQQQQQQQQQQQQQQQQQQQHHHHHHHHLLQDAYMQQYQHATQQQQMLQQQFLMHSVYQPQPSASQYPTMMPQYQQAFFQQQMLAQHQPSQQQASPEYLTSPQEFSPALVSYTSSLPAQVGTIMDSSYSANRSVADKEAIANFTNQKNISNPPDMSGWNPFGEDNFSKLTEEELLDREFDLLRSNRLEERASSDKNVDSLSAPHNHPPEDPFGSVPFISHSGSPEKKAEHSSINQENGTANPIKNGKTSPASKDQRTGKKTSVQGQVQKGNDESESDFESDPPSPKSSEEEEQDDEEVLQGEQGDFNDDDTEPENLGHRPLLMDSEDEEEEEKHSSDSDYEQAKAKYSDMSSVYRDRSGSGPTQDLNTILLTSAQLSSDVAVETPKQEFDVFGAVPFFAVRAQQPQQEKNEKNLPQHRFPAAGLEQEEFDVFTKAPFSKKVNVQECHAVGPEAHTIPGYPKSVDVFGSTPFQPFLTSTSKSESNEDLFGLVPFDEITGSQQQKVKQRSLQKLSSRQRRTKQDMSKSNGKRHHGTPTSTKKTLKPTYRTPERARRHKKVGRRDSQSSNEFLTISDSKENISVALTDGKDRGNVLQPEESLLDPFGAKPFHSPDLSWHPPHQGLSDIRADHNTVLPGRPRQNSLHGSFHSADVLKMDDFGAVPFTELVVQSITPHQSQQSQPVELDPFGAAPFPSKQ
BMP2K-S (shorter splicing variant of bone morphogenetic protein 2-inducible kinase), non-tagged (Q9NSY1-2, form named): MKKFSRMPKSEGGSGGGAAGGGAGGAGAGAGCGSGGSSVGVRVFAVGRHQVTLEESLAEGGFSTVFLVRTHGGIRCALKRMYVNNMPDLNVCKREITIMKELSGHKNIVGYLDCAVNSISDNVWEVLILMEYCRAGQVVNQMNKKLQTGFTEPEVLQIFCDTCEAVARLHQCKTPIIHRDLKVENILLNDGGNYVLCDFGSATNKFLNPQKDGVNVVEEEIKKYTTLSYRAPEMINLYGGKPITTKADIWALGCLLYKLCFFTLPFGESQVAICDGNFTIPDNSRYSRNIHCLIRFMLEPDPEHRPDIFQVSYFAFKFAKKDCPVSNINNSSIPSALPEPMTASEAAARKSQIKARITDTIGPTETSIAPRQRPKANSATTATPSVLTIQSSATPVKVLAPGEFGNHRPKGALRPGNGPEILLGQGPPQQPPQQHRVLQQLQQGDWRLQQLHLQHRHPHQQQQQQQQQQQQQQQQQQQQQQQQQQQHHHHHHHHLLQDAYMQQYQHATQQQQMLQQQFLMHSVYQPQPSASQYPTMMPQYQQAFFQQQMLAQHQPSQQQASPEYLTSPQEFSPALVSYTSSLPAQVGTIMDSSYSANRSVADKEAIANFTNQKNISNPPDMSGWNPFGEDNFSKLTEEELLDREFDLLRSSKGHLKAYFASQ

Biological target: EGFP-tagged SEC16A (human) (UniProt O15027)
Test: co-IP; HEK293 cells co-transfected with BMP2K-L or -S and EGFP only or EGFP-SEC16A; RIPA lysates; goat anti-GFP antibodies 1.5 hr at 4°C, Protein G-agarose; washes with 50 mM Hepes pH 7.5, 300 mM NaCl, 1% Triton X-100; western blotting

BMP2K-L (longer splicing variant of bone morphogenetic protein 2-inducible kinase), non-tagged (from UniProt Q9NSY1 1-1161)
binding: binds

BMP2K-S (shorter splicing variant of bone morphogenetic protein 2-inducible kinase), non-tagged (from UniProt Q9NSY1-2 1-662)
binding: binds
